Assay results: PubChem BioAssay AID248 (DTP/NCI, 2004)
The list is a part of this screen's results and no random one: it is rich in T/C values a quarter to a half above the control, in often repeated tests (any T/C) and in doses without a T/C. Other doses and runs of a compound stand elsewhere. T/C gives the treated animals as a percentage of the vehicle group. Some doses have a count of surviving animals in place of a T/C: the source files T/C as zero there, which appears to mark a toxic dose or a test without result, not a measured value. Some survivor counts are full or nearly so, which does not show that the dose was tolerated: survival well below the control is almost never listed, so the zero probably covers shortened survival too. Survivors were counted at the toxicity check, usually on the fifth day, unless a day is given; later deaths do not show. Schedules are NCI's codes, taken here to give the interval after Q, in days (D) or hours (H), and the number of doses after X. Some entries hold several experiments; the results are listed from low to high. Some schedule codes hold Z or #, which are not explained here. Where survival is the endpoint, the PubChem record calls one and a half times the control and up active, and a quarter to a half above the control has no call in these data; cut-offs in other NCI protocols can differ.

Test system: L1210 leukemia ip in BDF1 mice, survival T/C
Assay: NCI In Vivo Anticancer Drug Screen. Data for tumor model L1210 Leukemia (intraperitoneal) in B6D2F1 (BDF1) mice
Details: T/C endpoint: mean survival time, higher T/C = longer survival
[1] = dose: 100.0 mg/kg/injection, schedule: Q01DX009 (ip), vehicle: saline with Tween-80
[2] = dose: 800.0 mg/kg/injection, schedule: Q01DX001 (ip), vehicle: saline
[3] = dose: 400.0 mg/kg/injection, schedule: Q01DX009 (ip), vehicle: saline with Tween-80
[4] = dose: 400.0 mg/kg/injection, schedule: Q01DX001 (ip), vehicle: carboxymethylcellulose (CMC)
[5] = dose: 400.0 mg/kg/injection, schedule: Q01DX001 (ip), vehicle: saline
[6] = dose: 100.0 mg/kg/injection, schedule: Q04DX002 (ip), vehicle: Klucel (hydroxypropylcellulose) (HPC)
[7] = dose: 200.0 mg/kg/injection, schedule: Q04DX002 (ip), vehicle: Klucel (hydroxypropylcellulose) (HPC)
[8] = dose: 400.0 mg/kg/injection, schedule: Q04DX002 (ip), vehicle: Klucel (hydroxypropylcellulose) (HPC)
[9] = dose: 200.0 mg/kg/injection, schedule: Q01DX009 (ip), vehicle: saline with Tween-80
[10] = dose: 100.0 mg/kg/injection, schedule: Q01DX009 (ip), vehicle: Klucel (hydroxypropylcellulose) (HPC)
[11] = dose: 100.0 mg/kg/injection, schedule: Q04DX003 (ip), vehicle: Klucel (hydroxypropylcellulose) (HPC)
[12] = dose: 200.0 mg/kg/injection, schedule: Q04DX003 (ip), vehicle: Klucel (hydroxypropylcellulose) (HPC)
[13] = dose: 400.0 mg/kg/injection, schedule: Q04DX003 (ip), vehicle: Klucel (hydroxypropylcellulose) (HPC)

With CCCCCCCC[As](C)(=O)O the survivor count (dose: 12.5 mg/kg/injection, schedule: Q01DX009 (ip), vehicle: saline with Tween-80) was 1 of 3, the survivor count (dose: 25.0 mg/kg/injection, schedule: Q01DX009 (ip), vehicle: saline with Tween-80) was 0 of 3 and 1 of 3 and the survivor count (dose: 50.0 mg/kg/injection, schedule: Q01DX009 (ip), vehicle: saline with Tween-80) was 1 of 3. For the same compound, the survivor count [1] was 0 of 3, the survivor count (dose: 100.0 mg/kg/injection, schedule: Q01DX009 (ip), vehicle: saline) was 0 of 6 and the survivor count (dose: 200.0 mg/kg/injection, schedule: Q01DX009 (ip), vehicle: saline) was 0 of 6. The survivor count (dose: 400.0 mg/kg/injection, schedule: Q01DX009 (ip), vehicle: saline) was 0 of 6.
For O=NN(CCCl)C(=O)NC1CCCC1, the T/C (dose: 12.5 mg/kg/injection, schedule: Q01DX001 (ip), vehicle: saline) was 127 % of control, the T/C (dose: 26.0 mg/kg/injection, schedule: Q01DX001 (ip), vehicle: saline) was 133 % of control and the T/C (dose: 40.0 mg/kg/injection, schedule: Q01DX001 (ip), vehicle: saline) was 127 % of control. The T/C (dose: 60.0 mg/kg/injection, schedule: Q01DX001 (ip), vehicle: saline) was 128 % of control, the survivor count (dose: 500.0 mg/kg/injection, schedule: Q01DX001 (ip), vehicle: saline) was 4 of 6 and the survivor count (dose: 600.0 mg/kg/injection, schedule: Q01DX001 (ip), vehicle: saline) was 2 of 6. The survivor count [2] was 0 of 6, the survivor count (dose: 1000.0 mg/kg/injection, schedule: Q01DX001 (ip), vehicle: saline) was 0 of 6 and the survivor count (dose: 1200.0 mg/kg/injection, schedule: Q01DX001 (ip), vehicle: saline) was 0 of 6.
For CCCCC#CC(=O)OCCCCC, the survivor count [3] was 0 of 6.
O=C(O)c1ccncc1C(=O)O was tested, and the survivor count [4] was 4 of 4.
For C=CCOC(=O)C(C)O (stereo not drawn), the survivor count [5] was 0 of 4.
For O=C(O)c1cccc(N2C(=O)C=CC2=O)c1, the survivor count [6] was 1 of 3 and 2 of 3, the survivor count [7] was 1 of 3 and the survivor count [8] was 0 of 3.
With Cc1cccc(C(=O)[O][Pb]([CH3])([CH3])[CH3])c1 the survivor count (dose: 25.0 mg/kg/injection, schedule: Q04DX002 (ip), vehicle: Klucel (hydroxypropylcellulose) (HPC)) was 2 of 3, the survivor count (dose: 50.0 mg/kg/injection, schedule: Q04DX002 (ip), vehicle: Klucel (hydroxypropylcellulose) (HPC)) was 0 of 3 and the survivor count [6] was 0 of 3. For the same compound, the survivor count [7] was 0 of 3 and the survivor count [8] was 0 of 3.
CCCCCCCCCCCCCCCCCC(=O)N/N=C/CCc1ccccc1 was tested, and the survivor count [9] was 6 of 6 and the survivor count [3] was 6 of 6.
CNc1nc(Cl)nc(Cl)n1 was tested, and the survivor count (dose: 400.0 mg/kg/injection, schedule: Q04DX003 (ip), vehicle: saline) was 1 of 6.
In the case of Cc1c(Cl)cccc1NC(=O)N1CCN(C)CC1, the survivor count (dose: 400.0 mg/kg/injection, schedule: Q01DX009 (ip), vehicle: Klucel (hydroxypropylcellulose) (HPC)) is reported as 1 of 6 and 2 of 3.
For CN(C(=O)CCl)c1ccccc1, the survivor count (dose: 50.0 mg/kg/injection, schedule: Q01DX009 (ip), vehicle: Klucel (hydroxypropylcellulose) (HPC)) was 5 of 5, the survivor count [10] was 1 of 6 and the survivor count [11] was 1 of 6. For the same compound, the survivor count (dose: 200.0 mg/kg/injection, schedule: Q01DX009 (ip), vehicle: Klucel (hydroxypropylcellulose) (HPC)) was 0 of 6, the survivor count [12] was 0 of 6 and the survivor count [13] was 1 of 6.
CSc1nnn(C(C)(C)C)n1 was tested, and the survivor count (dose: 400.0 mg/kg/injection, schedule: Q01DX001 (ip), vehicle: acetone) was 6 of 6.
In the case of NC(N)=N/N=C\c1ccc(OCc2ccccc2)cc1, the survivor count (dose: 60.0 mg/kg/injection, schedule: Q01DX Z (ip), vehicle: saline) is reported as 1 of 6 and the survivor count (dose: 120.0 mg/kg/injection, schedule: Q01DX Z (ip), vehicle: saline) is reported as 0 of 6.
With CCNC1CCCCC1 the survivor count [9] was 0 of 6.
For CCN(CC)CCn1c(CC23CC4CC(CC(C4)C2)C3)nc2cc([N+](=O)[O-])ccc21, the survivor count (dose: 400.0 mg/kg/injection, schedule: Q01DX001 (ip), vehicle: Klucel (hydroxypropylcellulose) (HPC)) was 6 of 6.
With CCCC(CCC)NCCOC(=O)c1ccc(N)cc1 the survivor count (dose: 150.0 mg/kg/injection, schedule: Q01DX001 (ip), vehicle: other) was 0 of 6 and the survivor count (dose: 300.0 mg/kg/injection, schedule: Q01DX001 (ip), vehicle: other) was 0 of 6.
With CC(CCCN(C)Cc1ccccc1)Nc1ccnc2cc(Cl)ccc12 (stereo not drawn) the survivor count [1] was 2 of 6, the survivor count [9] was 0 of 6 and the survivor count [3] was 0 of 6.
For Cc1cc(N)c2ccccc2[n+]1CCCCCCCCCC[n+]1c(C)cc(N)c2ccccc21, the survivor count (dose: 6.0 mg/kg/injection, schedule: Q01DX009 (ip), vehicle: Klucel (hydroxypropylcellulose) (HPC)) was 6 of 6, the survivor count (dose: 12.0 mg/kg/injection, schedule: Q01DX009 (ip), vehicle: Klucel (hydroxypropylcellulose) (HPC)) was 3 of 6 and the survivor count (dose: 25.0 mg/kg/injection, schedule: Q04DX003 (ip), vehicle: Klucel (hydroxypropylcellulose) (HPC)) was 6 of 6. For the same compound, the survivor count (dose: 50.0 mg/kg/injection, schedule: Q04DX003 (ip), vehicle: Klucel (hydroxypropylcellulose) (HPC)) was 0 of 6, the survivor count [11] was 0 of 6 and the survivor count [12] was 0 of 6. For the same compound, the survivor count [13] was 0 of 6.
CCCNC(=O)c1cccc(-c2cccc(C(=O)NCCC)c2)c1 was tested, and the survivor count (dose: 100.0 mg/kg/injection, schedule: Q01DX001 (ip), vehicle: other) was 4 of 4 and the survivor count (dose: 400.0 mg/kg/injection, schedule: Q01DX001 (ip), vehicle: other) was 1 of 4.
For CCN(CC)CCOC(=O)C(c1ccccc1)C1C=CCCC1 (stereo not drawn), the survivor count (dose: 300.0 mg/kg/injection, schedule: Q01DX001 (ip), vehicle: saline) was 0 of 6.
CCCCNc1ncnc2c1cnn2C was tested, and the survivor count (dose: 150.0 mg/kg/injection, schedule: Q01DX Z (ip), vehicle: saline) was 5 of 6, the survivor count (dose: 250.0 mg/kg/injection, schedule: Q01DX010 (ip), vehicle: saline) was 0 of 6 and 1 of 6 and the survivor count [5] was 0 of 6. The survivor count [2] was 0 of 6.
Cc1ccc(NC(=O)NC(C)C)c(C)c1 was tested, and the survivor count (dose: 100.0 mg/kg/injection, schedule: Q04DX003 (ip), vehicle: saline with Tween-80) was 6 of 6 and the survivor count (dose: 200.0 mg/kg/injection, schedule: Q04DX003 (ip), vehicle: saline with Tween-80) was 5 of 6.
O=[N+]([O-])/C=C/c1ccc(Cl)cc1 was tested, and the survivor count [10] was 0 of 6.
With CC(O)(c1ccncc1)c1cc2ccccc2n1S(=O)(=O)c1ccccc1 (stereo not drawn) the survivor count [8] was 1 of 3.
With CC(C)c1ccc(NC(=O)Nc2cc(Cl)ccc2Cl)cc1 the survivor count (dose: 100.0 mg/kg/injection, schedule: Q04DX003 (ip), vehicle: gum acacia) was 5 of 6 and the survivor count (dose: 200.0 mg/kg/injection, schedule: Q01DX009 (ip), vehicle: gum acacia) was 6 of 6.
With CC(C)C(CCCC(=O)O)C(=O)O (stereo not drawn) the survivor count [4] was 2 of 4.
